In paper PMC3161984:
Results are given in words; binding and its absence hold for the method and conditions named. Binding seen in cells or lysates may run through a third protein. Some results given as binding are weak or reduced against the parent protein; the word gives no strength.

Chains of the proteins cited; added tags and fusions are not shown.
UniProt Q09472: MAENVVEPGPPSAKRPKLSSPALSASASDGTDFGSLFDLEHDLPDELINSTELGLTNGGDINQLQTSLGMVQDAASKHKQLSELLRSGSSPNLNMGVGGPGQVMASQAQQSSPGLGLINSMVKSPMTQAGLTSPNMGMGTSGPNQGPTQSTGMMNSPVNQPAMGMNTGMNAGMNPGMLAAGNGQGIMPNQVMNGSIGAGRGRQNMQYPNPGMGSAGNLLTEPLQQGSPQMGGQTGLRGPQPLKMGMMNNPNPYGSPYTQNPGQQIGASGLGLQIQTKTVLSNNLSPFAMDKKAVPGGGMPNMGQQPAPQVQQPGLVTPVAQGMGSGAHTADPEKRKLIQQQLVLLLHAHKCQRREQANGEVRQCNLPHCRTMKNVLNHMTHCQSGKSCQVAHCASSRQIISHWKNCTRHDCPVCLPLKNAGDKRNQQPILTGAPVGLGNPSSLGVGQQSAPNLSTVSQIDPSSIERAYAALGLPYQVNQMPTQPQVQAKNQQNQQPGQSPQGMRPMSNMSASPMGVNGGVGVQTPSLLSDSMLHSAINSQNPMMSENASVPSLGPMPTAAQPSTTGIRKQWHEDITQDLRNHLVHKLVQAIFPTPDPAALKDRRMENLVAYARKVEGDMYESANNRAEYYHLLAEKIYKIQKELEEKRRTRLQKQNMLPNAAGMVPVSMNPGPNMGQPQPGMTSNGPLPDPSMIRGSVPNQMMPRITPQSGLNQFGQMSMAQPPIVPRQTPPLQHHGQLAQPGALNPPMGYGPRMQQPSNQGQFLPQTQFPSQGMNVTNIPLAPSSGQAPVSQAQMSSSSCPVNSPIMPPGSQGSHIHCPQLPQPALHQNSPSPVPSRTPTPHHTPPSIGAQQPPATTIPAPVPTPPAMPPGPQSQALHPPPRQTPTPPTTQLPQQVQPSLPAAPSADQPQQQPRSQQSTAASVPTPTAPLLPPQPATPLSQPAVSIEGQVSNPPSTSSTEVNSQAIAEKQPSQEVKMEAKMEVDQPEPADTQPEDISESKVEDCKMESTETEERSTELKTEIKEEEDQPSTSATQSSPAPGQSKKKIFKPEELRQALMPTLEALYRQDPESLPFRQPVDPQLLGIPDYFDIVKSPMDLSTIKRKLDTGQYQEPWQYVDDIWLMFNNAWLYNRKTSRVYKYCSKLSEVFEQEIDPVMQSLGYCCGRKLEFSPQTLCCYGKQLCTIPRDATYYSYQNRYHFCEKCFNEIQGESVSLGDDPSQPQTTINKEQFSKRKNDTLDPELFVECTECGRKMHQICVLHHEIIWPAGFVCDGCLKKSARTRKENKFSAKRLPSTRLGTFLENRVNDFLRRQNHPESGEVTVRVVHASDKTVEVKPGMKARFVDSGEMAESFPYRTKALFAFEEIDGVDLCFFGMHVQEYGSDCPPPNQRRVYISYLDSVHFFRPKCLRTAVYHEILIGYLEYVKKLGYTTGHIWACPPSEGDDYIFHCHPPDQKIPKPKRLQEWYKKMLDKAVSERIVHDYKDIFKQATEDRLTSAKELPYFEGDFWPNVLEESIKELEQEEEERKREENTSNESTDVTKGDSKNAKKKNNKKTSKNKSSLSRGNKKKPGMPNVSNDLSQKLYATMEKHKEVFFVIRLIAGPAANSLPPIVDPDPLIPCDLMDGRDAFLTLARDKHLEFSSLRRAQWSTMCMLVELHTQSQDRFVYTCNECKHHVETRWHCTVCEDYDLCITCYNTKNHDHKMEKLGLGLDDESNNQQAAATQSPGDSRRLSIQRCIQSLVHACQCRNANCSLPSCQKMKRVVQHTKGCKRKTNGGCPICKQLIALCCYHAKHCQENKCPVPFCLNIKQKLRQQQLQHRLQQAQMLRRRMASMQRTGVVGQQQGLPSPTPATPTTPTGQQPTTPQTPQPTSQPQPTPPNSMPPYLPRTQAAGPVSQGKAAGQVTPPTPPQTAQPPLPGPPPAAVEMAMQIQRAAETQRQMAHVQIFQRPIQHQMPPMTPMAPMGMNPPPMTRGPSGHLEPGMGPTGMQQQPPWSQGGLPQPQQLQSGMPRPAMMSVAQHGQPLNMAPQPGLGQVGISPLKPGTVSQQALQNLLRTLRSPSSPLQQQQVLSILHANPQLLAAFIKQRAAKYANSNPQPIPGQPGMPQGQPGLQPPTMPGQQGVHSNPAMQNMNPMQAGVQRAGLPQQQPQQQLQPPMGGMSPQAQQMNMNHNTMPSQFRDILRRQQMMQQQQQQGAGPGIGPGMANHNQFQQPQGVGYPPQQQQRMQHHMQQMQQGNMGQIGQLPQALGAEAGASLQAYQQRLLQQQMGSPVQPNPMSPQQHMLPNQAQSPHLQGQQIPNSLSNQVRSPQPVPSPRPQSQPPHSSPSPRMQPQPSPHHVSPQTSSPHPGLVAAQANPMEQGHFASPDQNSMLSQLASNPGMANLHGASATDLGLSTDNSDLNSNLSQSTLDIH
UniProt P06428: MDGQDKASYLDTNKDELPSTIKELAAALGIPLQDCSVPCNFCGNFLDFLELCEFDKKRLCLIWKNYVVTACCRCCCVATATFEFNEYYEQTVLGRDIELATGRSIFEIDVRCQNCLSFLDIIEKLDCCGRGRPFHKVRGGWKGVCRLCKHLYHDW

What was measured:
[1] = molecular target: histone acetyltransferase p300 (endogenous) (human (endogenous in HFKs)) (UniProt Q09472); experiment: co-IP
[2] = molecular target: C-terminally HA-tagged E6 protein of β-HPV type 8 (human papillomavirus type 8) (UniProt P06428); experiment: co-IP
[3] = molecular target: GST-tagged E6 protein from β-HPV type 8 (human papillomavirus type 8) (UniProt P06428); experiment: pull-down; only the target purified

Question: “C-terminally HA-tagged E6 protein of β-HPV type 8 (from UniProt P06428 1-155)” was tested. Which binding [1] did it give?
Answer: binds

Question: What does the source list for “histone acetyltransferase p300 (endogenous) (from UniProt Q09472 1-2414)”?
Answer: binding [2]: binds; binding [3]: binds
